Laboratory results as given in paper PMC10055685.
No constants are given. Whether binding was seen depends on the method and setting. In cells and extracts the contact can be indirect. Some binding calls cover weakened binding; strength is not graded here.

The chains behind the UniProt entries cited, without tags or fusion partners. Where a name states a change or a piece, a line headed by the entry shows the natural chain unless it says otherwise.
UniProt P35240: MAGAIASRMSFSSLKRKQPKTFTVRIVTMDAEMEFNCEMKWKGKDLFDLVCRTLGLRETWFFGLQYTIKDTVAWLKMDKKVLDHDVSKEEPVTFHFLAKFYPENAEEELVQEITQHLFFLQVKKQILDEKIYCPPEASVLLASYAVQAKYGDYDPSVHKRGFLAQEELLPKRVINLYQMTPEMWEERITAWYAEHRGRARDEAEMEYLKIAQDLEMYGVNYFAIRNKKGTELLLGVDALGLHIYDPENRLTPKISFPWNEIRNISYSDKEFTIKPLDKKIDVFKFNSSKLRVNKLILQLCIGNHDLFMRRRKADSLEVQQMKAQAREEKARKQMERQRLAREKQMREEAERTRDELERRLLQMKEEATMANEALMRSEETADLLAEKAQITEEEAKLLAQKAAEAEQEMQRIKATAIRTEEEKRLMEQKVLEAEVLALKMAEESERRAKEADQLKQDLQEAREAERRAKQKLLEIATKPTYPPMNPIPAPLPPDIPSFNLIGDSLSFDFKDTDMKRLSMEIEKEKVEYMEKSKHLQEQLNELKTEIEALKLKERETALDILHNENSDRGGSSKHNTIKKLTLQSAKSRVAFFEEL
UniProt P35222: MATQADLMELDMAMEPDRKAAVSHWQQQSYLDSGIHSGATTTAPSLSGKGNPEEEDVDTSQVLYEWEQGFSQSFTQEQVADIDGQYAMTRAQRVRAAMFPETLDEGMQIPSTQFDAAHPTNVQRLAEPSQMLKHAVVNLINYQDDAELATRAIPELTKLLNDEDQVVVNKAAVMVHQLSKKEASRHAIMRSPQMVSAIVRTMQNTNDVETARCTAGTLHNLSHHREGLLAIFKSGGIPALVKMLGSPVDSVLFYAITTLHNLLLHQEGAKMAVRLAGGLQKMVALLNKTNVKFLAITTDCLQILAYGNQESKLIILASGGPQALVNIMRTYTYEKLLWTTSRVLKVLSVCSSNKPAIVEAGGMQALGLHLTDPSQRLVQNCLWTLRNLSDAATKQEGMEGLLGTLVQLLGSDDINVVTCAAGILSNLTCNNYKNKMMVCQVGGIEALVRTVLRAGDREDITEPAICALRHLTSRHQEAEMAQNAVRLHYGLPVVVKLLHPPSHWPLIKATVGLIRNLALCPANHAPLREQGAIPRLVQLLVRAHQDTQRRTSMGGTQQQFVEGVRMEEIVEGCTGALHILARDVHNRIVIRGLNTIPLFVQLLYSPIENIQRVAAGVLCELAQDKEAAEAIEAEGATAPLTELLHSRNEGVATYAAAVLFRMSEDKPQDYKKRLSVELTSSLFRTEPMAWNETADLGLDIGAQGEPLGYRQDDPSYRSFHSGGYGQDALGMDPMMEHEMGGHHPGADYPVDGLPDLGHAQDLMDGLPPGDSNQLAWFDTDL

Tests used:
[1] = target: Merlin^FLAG S13D (doxycycline-inducible, used for FLAG immunoprecipitation) (human) (UniProt P35240); experiment: co-IP; FLAG antibody-bound beads with M10G cell lysate (doxycycline-inducible Merlin^FLAG, 1μg/ml), 4°C for 4 hours, 4 washes in lysis buffer; immunoblot for β-catenin
[2] = target: Merlin^FLAG S13A (doxycycline-inducible, used for FLAG immunoprecipitation) (human) (UniProt P35240); experiment: as above

binding [1]: binds
binding [2]: no binding
Substance: β-catenin (from UniProt P35222 1-781)
